In PMC5079590:
These are yes or no findings as the source states them, for the method shown. Binding can be weak; no strength is given.

Sequences of proteins named here, by UniProt entry; tags and fusion partners are left off. A change or cut given only in a name is not applied to a line headed by its entry.
UniProt E5LEV3: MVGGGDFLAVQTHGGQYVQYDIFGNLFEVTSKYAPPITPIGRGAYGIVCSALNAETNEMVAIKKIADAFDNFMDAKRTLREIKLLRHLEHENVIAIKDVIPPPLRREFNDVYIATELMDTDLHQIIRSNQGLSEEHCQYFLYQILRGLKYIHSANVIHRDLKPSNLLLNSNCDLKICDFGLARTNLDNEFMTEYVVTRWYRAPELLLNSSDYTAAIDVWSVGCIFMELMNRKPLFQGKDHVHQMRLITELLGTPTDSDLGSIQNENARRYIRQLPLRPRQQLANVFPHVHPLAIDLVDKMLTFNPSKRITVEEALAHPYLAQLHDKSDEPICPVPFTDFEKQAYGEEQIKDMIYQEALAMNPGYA
UniProt A0A142KXI2: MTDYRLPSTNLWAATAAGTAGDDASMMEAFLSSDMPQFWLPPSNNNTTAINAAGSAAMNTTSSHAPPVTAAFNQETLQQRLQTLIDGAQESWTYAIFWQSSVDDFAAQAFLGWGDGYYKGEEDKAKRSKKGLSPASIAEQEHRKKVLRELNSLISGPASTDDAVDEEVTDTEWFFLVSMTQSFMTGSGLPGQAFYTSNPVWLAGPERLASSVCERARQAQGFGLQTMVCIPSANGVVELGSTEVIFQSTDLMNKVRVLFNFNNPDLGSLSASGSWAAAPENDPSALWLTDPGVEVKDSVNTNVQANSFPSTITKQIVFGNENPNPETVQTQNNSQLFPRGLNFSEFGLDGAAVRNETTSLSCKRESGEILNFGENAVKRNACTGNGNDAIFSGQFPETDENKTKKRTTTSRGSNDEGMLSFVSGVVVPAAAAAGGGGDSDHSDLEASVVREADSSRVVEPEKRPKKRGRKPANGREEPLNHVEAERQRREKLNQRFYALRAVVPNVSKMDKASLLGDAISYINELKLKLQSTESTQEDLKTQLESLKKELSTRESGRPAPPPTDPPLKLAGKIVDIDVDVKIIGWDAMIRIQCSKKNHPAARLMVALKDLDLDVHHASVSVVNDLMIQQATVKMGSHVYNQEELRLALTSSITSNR
UniProt A0A142KXI3: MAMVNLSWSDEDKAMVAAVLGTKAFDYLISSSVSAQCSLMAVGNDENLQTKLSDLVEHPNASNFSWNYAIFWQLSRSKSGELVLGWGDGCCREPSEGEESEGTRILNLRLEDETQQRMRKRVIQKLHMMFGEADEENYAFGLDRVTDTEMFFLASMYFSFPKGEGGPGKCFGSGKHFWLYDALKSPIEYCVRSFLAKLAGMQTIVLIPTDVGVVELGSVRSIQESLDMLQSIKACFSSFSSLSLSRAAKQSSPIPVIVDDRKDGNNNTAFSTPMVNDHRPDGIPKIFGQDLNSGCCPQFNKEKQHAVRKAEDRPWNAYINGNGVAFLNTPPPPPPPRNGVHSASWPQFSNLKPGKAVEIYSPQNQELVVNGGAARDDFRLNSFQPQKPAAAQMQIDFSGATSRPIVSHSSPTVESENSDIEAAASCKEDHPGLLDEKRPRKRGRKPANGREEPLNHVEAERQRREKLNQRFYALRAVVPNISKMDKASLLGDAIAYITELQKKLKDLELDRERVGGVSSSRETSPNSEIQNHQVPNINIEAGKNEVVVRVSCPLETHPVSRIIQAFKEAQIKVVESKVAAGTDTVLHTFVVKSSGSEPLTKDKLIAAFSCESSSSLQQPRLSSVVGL

Assays:
[1] = target: GST-IbWIPK1 (sweet potato (Ipomoea batatas)) (UniProt E5LEV3); assay: pull-down; GST pull-down: GST-fusion proteins co-incubated with MBP-IbbHLH3 and GST resin; washed with PBS; western blot with anti-GST and anti-MBP; both purified
[2] = target: GST-IbWIPK2 (sweet potato (Ipomoea batatas)); assay: as above
[3] = target: GST-JAZ1 (sweet potato (Ipomoea batatas)); assay: as above
[4] = target: GST-JAZ2a (sweet potato (Ipomoea batatas)); assay: as above
[5] = target: GST-JAZ2b (sweet potato (Ipomoea batatas)); assay: as above
[6] = target: MBP-IbbHLH3 (sweet potato (Ipomoea batatas)); assay: pull-down; MBP pull-down: recombinant GST-IbbHLH4 co-incubated with MBP-IbbHLH3 and amylose resin; washed five times with MBP column buffer; western blot with anti-MBP and anti-GST; both purified

Measured: binding

MBP-IbbHLH3 (from UniProt A0A142KXI2)
binds: [1] | [2] | [3] | [4] | [5]

GST-IbbHLH4 (recombinant protein) (from UniProt A0A142KXI3)
binds: [6]
